In patent publication US20130012473A1, “COMBINED USE OF PHOSPHOLIPID AND SULFATE GROUPS-CARRYING POLYSACCHARIDES FOR INHIBITING METASTATIC SPREAD” (KTB TUMORFORSCHUNGSGESELLSCHAFT MBH, priority 2010, published 2013):

Test system: B16.F10 melanoma cells
Test: Removal of exogenous LysoPC from the medium (PC/LysoPC and free choline assays)
Type: cell-based, mouse
Text: Cell culture and LysoPC feeding: Mouse melanoma cell line B16.F10 (ATCC, CRL-6475) was passaged in vitro in DMEM as described before (Fritzsche, J. et al., Thromb. Haemost. 100:1166-1175 (2008)). Cells were routinely (monthly) tested to be negative of mycoplasms, their morphological appearance observed by microscopic means and examined for the expression of adhesion receptors and ligands by flow cytometry. LysoPC removal (1-Heptadecanoyl-2-hydroxy-sn-glycero-3-phosphocholine, (C17:0; HEP-LysoPC), Avanti Polar Lipids, Inc., or 1-Hexadecanoyl-sn-glycero-3-phosphocholine, (C16:0; HEX-LysoPC), Sigma, Taufkirchen, Germany was determined using 1×10^5 cells in 24-well tissue culture plates (Greiner BioOne, Frickenhausen, Germany). Non-cytotoxic LysoPC/BSA DMEM-solutions (FIG. 7 A) were prepared by adding 20-40 mg/ml bovine serum albumine (BSA, PAA Laboratories GmbH, Cölbe, Germany). Cell culture supernatants were collected from triplicates of LysoPC treated and untreated control wells. Cells were removed from tissue culture plates using trypsin/EDTA. Centrifuged supernatants and cell pellets were stored at −20° C. and −80° C. until analysis, respectively. […]
Determination of LysoPC concentration: LysoPC concentration was determined by an enzymatic PL (PC/LysoPC) assay containing phospholipase D and choline oxidase (mti diagnostics GmbH, Idstein, Germany). […] GlyceroPC was determined using the assay for free choline adding 1 IU/ml of sn-glycerol-3-phosphocholine phosphodiesterase (Sigma, Taufkirchen, Germany). […]
LysoPC removal was determined by measuring total choline (LysoPC and free choline) and subtracting the values of free choline as measured by a separate free choline assay (for details see FIG. 7 B-D).
B, C and D) Colorimetric assays for the quantification of LysoPC removal from the supernatant of B16.F10. The removal of the added LysoPC from the supernatant of B16.F10 cells was determined by a combination of two colorimetric assays. […]
In contrast, the second assay only quantifies free choline (FC) (C). […]

## CCCCCCCCCCCCCCCCC(=O)OC[C@@H](O)COP(=O)([O-])OCC[N+](C)(C)C [LysoPC]
B16.F10 and B16.F10 ELN cells, time-course, BSA added
  removal of LysoPC from the medium by cells: rapid reduction
LysoPC added at 300 μM-450 μM
  removed amount of LysoPC as multiple of the total amount of cellular PLs: approximately 125 times
At least 48 h after adding
  elimination of LysoPC from supernatant: total elimination
